# Measurements published in article PMC2859746.
# These are yes or no findings as the source states them, for the method shown. In cells and extracts the contact can be indirect. Binding calls can cover weak binding; strength is not graded here. For some assays here: Where a sequence is shown, tags or fusion partners need not be part of it.
# T1: GST-RB, large pocket of pRB (amino acids 379 to 928), wild type (human) (UniProt P06400)
# T1 sequence: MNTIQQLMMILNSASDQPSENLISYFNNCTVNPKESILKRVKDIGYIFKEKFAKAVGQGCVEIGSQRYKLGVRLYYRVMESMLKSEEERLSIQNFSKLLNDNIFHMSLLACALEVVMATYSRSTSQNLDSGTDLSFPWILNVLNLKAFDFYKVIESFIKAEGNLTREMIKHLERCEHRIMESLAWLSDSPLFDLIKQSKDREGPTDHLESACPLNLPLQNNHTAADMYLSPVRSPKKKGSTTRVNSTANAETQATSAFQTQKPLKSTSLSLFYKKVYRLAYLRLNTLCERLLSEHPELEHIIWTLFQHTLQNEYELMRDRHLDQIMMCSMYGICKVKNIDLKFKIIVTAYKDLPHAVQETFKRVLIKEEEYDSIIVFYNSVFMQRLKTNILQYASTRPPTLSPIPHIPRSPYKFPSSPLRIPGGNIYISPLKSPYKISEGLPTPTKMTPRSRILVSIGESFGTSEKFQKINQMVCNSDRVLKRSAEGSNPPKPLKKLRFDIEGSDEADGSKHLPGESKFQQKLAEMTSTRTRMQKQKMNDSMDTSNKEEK
# B1: retinoblastoma protein (pRB), full-length wild type (CMV-RB) (protein, UniProt P06400 1-928)
# chain: MPPKTPRKTAATAAAAAAEPPAPPPPPPPEEDPEQDSGPEDLPLVRLEFEETEEPDFTALCQKLKIPDHVRERAWLTWEKVSSVDGVLGGYIQKKKELWGICIFIAAVDLDEMSFTFTELQKNIEISVHKFFNLLKEIDTSTKVDNAMSRLLKKYDVLFALFSKLERTCELIYLTQPSSSISTEINSALVLKVSWITFLLAKGEVLQMEDDLVISFQLMLCVLDYFIKLSPPMLLKEPYKTAVIPINGSPRTPRRGQNRSARIAKQLENDTRIIEVLCKEHECNIDEVKNVYFKNFIPFMNSLGLVTSNGLPEVENLSKRYEEIYLKNKDLDARLFLDHDKTLQTDSIDSFETQRTPRKSNLDEEVNVIPPHTPVRTVMNTIQQLMMILNSASDQPSENLISYFNNCTVNPKESILKRVKDIGYIFKEKFAKAVGQGCVEIGSQRYKLGVRLYYRVMESMLKSEEERLSIQNFSKLLNDNIFHMSLLACALEVVMATYSRSTSQNLDSGTDLSFPWILNVLNLKAFDFYKVIESFIKAEGNLTREMIKHLERCEHRIMESLAWLSDSPLFDLIKQSKDREGPTDHLESACPLNLPLQNNHTAADMYLSPVRSPKKKGSTTRVNSTANAETQATSAFQTQKPLKSTSLSLFYKKVYRLAYLRLNTLCERLLSEHPELEHIIWTLFQHTLQNEYELMRDRHLDQIMMCSMYGICKVKNIDLKFKIIVTAYKDLPHAVQETFKRVLIKEEEYDSIIVFYNSVFMQRLKTNILQYASTRPPTLSPIPHIPRSPYKFPSSPLRIPGGNIYISPLKSPYKISEGLPTPTKMTPRSRILVSIGESFGTSEKFQKINQMVCNSDRVLKRSAEGSNPPKPLKKLRFDIEGSDEADGSKHLPGESKFQQKLAEMTSTRTRMQKQKMNDSMDTSNKEEK
# What was measured:
# [1] = molecular target: T1, GST-RB, large pocket of pRB (amino acids 379 to 928), wild type (human); assay: pull-down; recombinant GST-RB proteins incubated with whole-cell extracts from C33A cells transfected with CMV-HA-E2F3 and CMV-HA-DP1, or CMV-TAg; bound proteins detected by western blotting (12CA5 or PAb419); only the target purified
# [2] = molecular target: Simian virus 40 TAg (CMV-TAg) (Simian virus 40); assay: co-IP; C33A cells co-transfected with CMV-RB constructs and CMV-TAg or CMV-HA-E2F3 and CMV-HA-DP1; precipitation with PAb419 (TAg) or 12CA5 (HA); bound pRB detected by western blotting with G3-245
Molecule,binding [1],binding [2]
Simian virus 40 TAg (CMV-TAg),binds,
B1,,binds
